Laboratory results: PubChem BioAssay AID1259254 (NCATS, 2017)
The whole screen tested about 59,000 reagents; this is a random part of them. About 1,550 of them (2.6%) were called active. 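G2 share is only a proxy for re-replication; each gene was hit by three separate siRNAs, and active genes were retested.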 Raw values are not corrected between plates. Unmarked entries are inactive. The numbers tell different reagents against one gene apart. Not given: the amount of reagent.

Purpose: 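Genome-wide screen for genes that prevent DNA re-replication in cancer cells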 (primary screen)
Cell system: human HCT116 colorectal cancer cells
Reagent: single siRNA against human genes
Time to read-out: 3 days
Read-out: 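Nuclei stained with Hoechst and imaged; cell-cycle phase assigned by DNA content; G2 share scaled per plate, non-targeting siRNA 0%, GMNN siRNA 100%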
Reading the numbers: G2 robust z-score and G2 cells, % of GMNN control: higher = more G2 cells, more excess DNA replication; raw share of cells in G2: higher = larger share of cells with G2 DNA content
Call rule: 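Active siRNAs have a G2 robust z of 5 or more median absolute deviations over the median, which in these data means about 38% or higher of GMNN control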

no.	gene symbol	siRNA no.	G2 robust z-score	G2 cells, % of GMNN control	raw share of cells in G2 (%)
1	CEP72	1	4.98	38	19.1
2	CEP72	2	0.836	8.85	7.8
3	CEP72	3	-0.552	-0.916	2.84
4	VANGL1	1	2.16	18.1	10.1
5	VANGL1	2	0.563	6.93	5.51
6	VANGL1	3	-1.03	-4.27	1.11
7	NRP1	1	-0.533	-0.783	4.18
8	NRP1	2	-1.11	-4.82	3.57
9	NRP1	3	-0.447	-0.18	4.64
10	LINC02939	1	-0.767	-2.43	2.49
11	LINC02939	2	0.286	4.98	4.81
12	LINC02939	3	0.288	4.99	5.55
13	SHISA2	1	-0.635	-1.5	3.99
14	SHISA2	2	-0.302	0.843	4.06
15	SHISA2	3	1.91	16.4	10.5
16	CD247	1	-0.232	1.34	5.44
17	CD247	2	-1.17	-5.24	2.29
18	CD247	3	0.205	4.41	6.6
19	BTK	1	-0.497	-0.533	5.43
20	BTK	2	-0.794	-2.62	4.53
21	BTK	3	-0.228	1.37	4.51
22	CCNQP1	1	0.866	9.06	7.22
23	CCNQP1	2	0.195	4.34	5.94
24	CCNQP1	3	-0.419	0.0182	3.99
25	ARF3	1	-0.386	0.255	4.81
26	ARF3	2	-1.2	-5.49	3.12
27	ARF3	3	-0.923	-3.52	2.68
28	MPZ	1	0.958	9.71	6.4
29	MPZ	2	-0.463	-0.289	5.25
30	MPZ	3	-0.232	1.33	6
31	SLU7	1	1.53	13.7	11.6
32	SLU7	2	2.39	19.8	10.2
33	SLU7	3	1.18	11.3	10.9
34	ZCCHC7	1	2.35	19.5	10.6
35	ZCCHC7	2	-0.29	0.93	3.73
36	ZCCHC7	3	-0.587	-1.16	2.05
37	CDH2	1	2.2	18.4	10.5
38	CDH2	2	1.95	16.7	10.9
39	CDH2	3	0.495	6.45	7.35
40	SLCO1C1	1	-0.897	-3.34	2.52
41	SLCO1C1	2	2.16	18.2	14.2
42	SLCO1C1	3	-0.614	-1.35	3.74
43	NUDT11	1	1.69	14.9	10.2
44	NUDT11	2	0.739	8.17	7.52
45	NUDT11	3	-0.858	-3.07	2.16
46	LDB3	1	0.0738	3.49	7.77
47	LDB3	2	0.0439	3.28	5.25
48	LDB3	3	-1.07	-4.59	2.29
49	DNAJC13	1	-0.423	-0.00821	3.52
50	DNAJC13	2	-0.811	-2.74	4.77
51	DNAJC13	3	3.19	25.4	14
52	ABCA16P	1	2.23	18.7	10.4
53	ABCA16P	2	-0.373	0.341	3.41
54	ABCA16P	3	1.47	13.3	9.54
55	CCDC12	1	3.36	26.6	12.8
56	CCDC12	2	-0.979	-3.92	1.7
57	CCDC12	3	0.725	8.07	5.88
58	CENPP	1	-0.735	-2.2	3.01
59	CENPP	2	0.0584	3.38	4.86
60	CENPP	3	-0.41	0.0851	4.83
61	ZBTB1	1	-0.0331	2.73	4.44
62	ZBTB1	2	-0.546	-0.876	5.6
63	ZBTB1	3	-0.371	0.358	3.49
64	PCDHGA9	1	-1.37	-6.68	3.5
65	PCDHGA9	2	1.61	14.3	9.55
66	PCDHGA9	3	0.47	6.28	6.95
67	ZMAT5	1	1.55	13.9	10.1
68	ZMAT5	2	1.99	17	10.5
69	ZMAT5	3	-0.0824	2.39	7.48
70	NICN1	1	-1.1	-4.78	2.52
71	NICN1	2	5.95 (active)	44.8	16.8
72	NICN1	3	-0.401	0.147	2.45
73	DDX19B	1	2.72	22.1	11.4
74	DDX19B	2	1.25	11.7	8.08
75	DDX19B	3	5.7 (active)	43.1	23.7
76	CFAP119	1	-0.45	-0.197	4
77	CFAP119	2	0.0275	3.16	3.99
78	CFAP119	3	0.265	4.83	4.46
79	FBXO16	1	-0.627	-1.45	3.08
80	FBXO16	2	0.0903	3.6	4.17
81	FBXO16	3	-1.01	-4.13	1.46
82	AP3D1	1	-0.151	1.9	5.39
83	AP3D1	2	-1.18	-5.35	3.39
84	AP3D1	3	0.268	4.85	6.74
85	QSOX1	1	0.154	4.05	5.49
86	QSOX1	2	0.298	5.06	6.72
87	QSOX1	3	0.313	5.17	6.65
